“And” between values parts separate entries of the source, which are not always exact repeats. Identical values can stand only once. Some results come without the dose or concentration used.
Tested on: Dd2b2
Test: Resistance selection
Format: cell-based, Plasmodium falciparum
Details: Dd2b2, initial inoculum 2x10^9, 3x-5x-7x IC50 pressure; flasks 1-3

In the case of `CN1CCN(Cc2ccc(O)c(NC(=O)c3cccc(Oc4cc(C(F)(F)F)ccn4)c3)c2)CC1` [Compound 31, N-(2-hydroxy-5-((4-methylpiperazin-1-yl)methyl)phenyl)-3-((4-(trifluoromethyl)pyridin-2-yl)oxy)benzamide], the “Day positive (first ring was observed in the culture)” value is reported as 19 and 22.
